# Values joined by “and” are separate entries in the source; they are usually repeats but may differ in a detail not shown here. Identical values can stand only once. The list shows a part of the results. Each value is one well over the wells without odorant, computed here; the data are noisy.
# Experiments:
# Experiment in all cases: odorant receptor activation (CRE luciferase / Renilla) (fold of no-odor wells); higher = more activation
# Conditions in all cases: 100 µM
# OR6Q1 clone 1231 = test system: OR6Q1 clone 1231
# [1] = test system: OR6S1 T42I/V156I/R237H clone 1271
# OR6T1 clone 1188 = test system: OR6T1 clone 1188
# OR6V1 clone 1730 = test system: OR6V1 clone 1730
# OR6X1 clone 1239 = test system: OR6X1 clone 1239
# OR6Y1 V252I clone 1025 = test system: OR6Y1 V252I clone 1025
# OR7A10 clone 1104 = test system: OR7A10 clone 1104
# OR7A17 clone 1300 = test system: OR7A17 clone 1300
# OR7A5 clone 1469 = test system: OR7A5 clone 1469
# OR7C1 clone 1299 = test system: OR7C1 clone 1299
Structure (SMILES),odorant receptor activation (OR6Q1 clone 1231),odorant receptor activation [1],odorant receptor activation (OR6T1 clone 1188),odorant receptor activation (OR6V1 clone 1730),odorant receptor activation (OR6X1 clone 1239),odorant receptor activation (OR6Y1 V252I clone 1025),odorant receptor activation (OR7A10 clone 1104),odorant receptor activation (OR7A17 clone 1300),odorant receptor activation (OR7A5 clone 1469),odorant receptor activation (OR7C1 clone 1299)
CCCCOC(C)=O [butyl acetate],1.14,0.732,1.19,0.677,0.759,0.93,1.01,0.872,0.809,0.956
CCC(C)=O [2-butanone],0.789,1.28,1.43,0.764,1.07,2.79,6.62,1.06,1.15,1.02
CS [methanethiol],0.708,0.846,0.932,0.779,0.854,1.26,1.15,1.07,0.759,1.24
CCOc1cc(C=O)ccc1O [ethyl vanillin],1.42,,1.06 and 1.24,0.861,0.716,1.48 and 1.46,1.02 and 0.882,1.37 and 0.841,1.45 and 1.86 and 1.27,1.87 and 1.21

# Reference: the odorant receptor screen of Mainland et al. (2015)
